Literature values as cited in US20120046333A1, “Methods and Compositions of PI-3 Kinase Inhibitors for Treating Fibrosis” (Oncothyreon Incorporated, priority 2009, published 2012).
Read-outs that look alike come from different tables or passages of the source. At least one compound was matched to its structure with a doubt left.

System: PI-3-kinase (p110α, p110β, p110δ, p110γ)
Details: covalent interaction with a lysine of the ATP binding pocket, cited from earlier work

COC[C@H]1OC(=O)c2coc3c2[C@@]1(C)C1=C(C3=O)[C@@H]2CCC(=O)[C@@]2(C)C[C@H]1OC(C)=O [Wortmannin]
inhibition of PI-3 kinase and its isoforms: irreversibly inhibits PI-3-kinase | inhibition of PI-3 kinase and its isoforms (listed as wortmannin): inhibited equally
